In this test the target is indoleamine 2, 3-dioxygenase (IDO1) (Homo sapiens, UniProt P14902). Kind of test: PBMC IDO1 assay (kynurenine detection via mass spectrometry). The following applies: human PBMC stimulated with IFN-γ and LPS, 2 days, kynurenine by mass spectrometry.

By UniProt entry, the sequences of proteins in these tests, tags left out.
UniProt P14902, whole entry: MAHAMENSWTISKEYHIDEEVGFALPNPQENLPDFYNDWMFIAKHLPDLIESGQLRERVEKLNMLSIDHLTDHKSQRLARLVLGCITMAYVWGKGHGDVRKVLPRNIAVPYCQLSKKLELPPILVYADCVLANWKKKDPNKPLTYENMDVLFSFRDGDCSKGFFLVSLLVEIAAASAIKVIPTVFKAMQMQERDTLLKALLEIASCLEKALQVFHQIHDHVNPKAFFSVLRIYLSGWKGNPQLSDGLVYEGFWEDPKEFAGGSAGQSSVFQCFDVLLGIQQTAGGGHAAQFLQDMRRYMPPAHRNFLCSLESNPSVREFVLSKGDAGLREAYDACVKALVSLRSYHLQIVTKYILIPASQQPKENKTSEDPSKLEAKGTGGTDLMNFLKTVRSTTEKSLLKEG

The structures given here were assigned with low confidence; some may be wrong.

Data on one compound can be found in patent publication US20210078988A1, “MODULATORS OF INDOLEAMINE 2,3-DIOXYGENASE” (GLAXOSMITHKLINE INTELLECTUAL PROPERTY DEVELOPMENT LIMITED, priority 2017, published 2021).

For `Cc1ccc(C(=O)NC(CC2CCN(C(=O)CC(F)(F)F)CC2)c2ccccc2)s1` (stereo not shown), the “IDO1 PBMC pIC50” value worked out at 7.0.
